Assay results as given in paper PMC10268282, “Activator-induced conformational changes regulate division-associated peptidoglycan amidases” (Proceedings of the National Academy of Sciences of the …, 2023).
Results are given in words; binding and its absence hold for the method and conditions named. Binding seen in cells or lysates may run through a third protein.

Target: T1, full-length EnvC protein (E. coli) (UniProt P37690)
T1 sequence: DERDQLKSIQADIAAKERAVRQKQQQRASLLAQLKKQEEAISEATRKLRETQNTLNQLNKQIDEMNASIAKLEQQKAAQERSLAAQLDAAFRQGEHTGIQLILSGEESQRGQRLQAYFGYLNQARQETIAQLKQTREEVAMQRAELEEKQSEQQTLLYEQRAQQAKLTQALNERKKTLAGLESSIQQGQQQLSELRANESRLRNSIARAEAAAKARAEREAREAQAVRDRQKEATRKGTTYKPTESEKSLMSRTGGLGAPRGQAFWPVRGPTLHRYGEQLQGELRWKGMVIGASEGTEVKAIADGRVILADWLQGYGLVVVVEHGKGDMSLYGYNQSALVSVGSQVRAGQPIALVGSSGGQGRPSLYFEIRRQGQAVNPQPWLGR
Assay: pull-down; copurification: AmiA or AmiA variants coexpressed alongside the His-tagged EnvC construct and copurified

B1: AmiA (wild type), coexpressed for copurification (enzyme, UniProt P36548 35-289)
chain: KDELLKTSNGHSKPKAKKSGGKRVVVLDPGHGGIDTGAIGRNGSKEKHVVLAIAKNVRSILRNHGIDARLTRSGDTFIPLYDRVEIAHKHGADLFMSIHADGFTNPKAAGASVFALSNRGASSAMAKYLSERENRADEVAGKKATDKDHLLQQVLFDLVQTDTIKNSLTLGSHILKKIKPVHKLHSRNTEQAAFVVLKSPSVPSVLVETSFITNPEEERLLGTAAFRQKIATAIAEGVISYFHWFDNQKAHSKKR
binding: no binding
